No constants are given. Whether binding was seen depends on the method and setting. Binding seen in cells or lysates may run through a third protein. These calls come from enrichment with a bait or labelling near it, and not all partners need be listed.
target: Rpb3 with C-terminal BioTAP tag (S. cerevisiae) (UniProt P16370); assay: affinity purification with mass spectrometry; BioTAP-XL two-step purification of Rpb3-BioTAP (IgG beads, then streptavidin agarose) from 1% formaldehyde-cross-linked wildtype and spt6-1004 cells shifted to 37 °C for 80 min; on-bead trypsin digestion, TMT labelling, MS3 quantification; untagged wildtype and spt6-1004 cells as controls; FDR cutoff 0.05

Protein sequences, listed by entry. Tags and fused reporters are not part of them.
UniProt P16370: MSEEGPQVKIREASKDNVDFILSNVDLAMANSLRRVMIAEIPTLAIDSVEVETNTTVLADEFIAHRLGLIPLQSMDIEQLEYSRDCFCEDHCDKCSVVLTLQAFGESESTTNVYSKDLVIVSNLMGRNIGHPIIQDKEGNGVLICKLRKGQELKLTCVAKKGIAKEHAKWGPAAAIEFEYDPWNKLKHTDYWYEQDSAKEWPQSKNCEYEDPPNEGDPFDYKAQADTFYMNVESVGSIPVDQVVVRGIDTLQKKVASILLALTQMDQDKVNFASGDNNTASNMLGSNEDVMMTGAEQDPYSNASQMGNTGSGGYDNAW
UniProt Q01159: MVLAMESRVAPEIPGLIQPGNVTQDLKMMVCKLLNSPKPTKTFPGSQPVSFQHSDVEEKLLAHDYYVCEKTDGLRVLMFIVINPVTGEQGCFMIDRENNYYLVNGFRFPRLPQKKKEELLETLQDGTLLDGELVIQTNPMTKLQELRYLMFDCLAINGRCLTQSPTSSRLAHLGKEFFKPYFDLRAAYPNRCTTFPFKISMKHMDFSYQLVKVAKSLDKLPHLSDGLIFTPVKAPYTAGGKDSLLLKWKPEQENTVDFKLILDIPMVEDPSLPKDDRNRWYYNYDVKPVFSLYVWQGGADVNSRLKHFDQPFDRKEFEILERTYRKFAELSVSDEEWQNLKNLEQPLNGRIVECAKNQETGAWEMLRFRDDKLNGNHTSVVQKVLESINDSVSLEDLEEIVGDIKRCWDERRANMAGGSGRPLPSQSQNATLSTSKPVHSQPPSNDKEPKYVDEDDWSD
UniProt P32657: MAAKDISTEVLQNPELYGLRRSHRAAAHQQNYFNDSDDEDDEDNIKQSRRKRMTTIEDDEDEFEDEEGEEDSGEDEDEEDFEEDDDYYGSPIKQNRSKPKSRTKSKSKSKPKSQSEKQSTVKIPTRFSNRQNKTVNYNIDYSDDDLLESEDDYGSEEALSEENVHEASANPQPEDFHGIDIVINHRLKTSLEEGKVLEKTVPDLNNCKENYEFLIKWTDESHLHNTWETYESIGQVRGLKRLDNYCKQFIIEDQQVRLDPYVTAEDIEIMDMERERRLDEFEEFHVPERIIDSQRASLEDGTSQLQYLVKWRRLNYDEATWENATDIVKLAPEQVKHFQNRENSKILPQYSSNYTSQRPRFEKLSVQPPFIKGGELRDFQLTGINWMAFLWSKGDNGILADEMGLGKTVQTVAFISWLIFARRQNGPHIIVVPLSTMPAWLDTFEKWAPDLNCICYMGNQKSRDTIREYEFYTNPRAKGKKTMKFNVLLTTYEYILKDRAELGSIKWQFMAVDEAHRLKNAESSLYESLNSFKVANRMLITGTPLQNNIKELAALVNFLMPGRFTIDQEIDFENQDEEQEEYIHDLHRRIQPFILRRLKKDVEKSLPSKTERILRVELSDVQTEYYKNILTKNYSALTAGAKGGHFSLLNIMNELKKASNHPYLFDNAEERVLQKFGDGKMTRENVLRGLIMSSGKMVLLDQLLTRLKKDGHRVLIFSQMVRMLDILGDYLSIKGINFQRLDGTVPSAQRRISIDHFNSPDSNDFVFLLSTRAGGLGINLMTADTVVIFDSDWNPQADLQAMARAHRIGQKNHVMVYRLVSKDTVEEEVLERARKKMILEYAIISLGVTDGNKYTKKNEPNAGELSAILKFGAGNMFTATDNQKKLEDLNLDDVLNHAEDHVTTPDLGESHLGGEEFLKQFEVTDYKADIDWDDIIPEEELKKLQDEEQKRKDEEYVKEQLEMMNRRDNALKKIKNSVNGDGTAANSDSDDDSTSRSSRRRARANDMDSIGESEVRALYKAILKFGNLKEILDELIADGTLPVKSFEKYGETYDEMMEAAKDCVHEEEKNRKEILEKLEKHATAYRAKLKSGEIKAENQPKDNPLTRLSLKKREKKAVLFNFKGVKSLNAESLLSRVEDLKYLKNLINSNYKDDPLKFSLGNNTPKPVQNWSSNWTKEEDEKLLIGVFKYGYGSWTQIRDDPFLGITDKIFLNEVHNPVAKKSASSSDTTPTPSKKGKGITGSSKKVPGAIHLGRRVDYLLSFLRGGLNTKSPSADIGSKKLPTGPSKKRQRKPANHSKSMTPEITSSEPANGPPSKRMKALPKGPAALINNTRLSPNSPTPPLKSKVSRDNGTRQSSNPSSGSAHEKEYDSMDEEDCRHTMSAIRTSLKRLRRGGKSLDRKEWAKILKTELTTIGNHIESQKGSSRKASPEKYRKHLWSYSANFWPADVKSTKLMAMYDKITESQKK
UniProt P15646: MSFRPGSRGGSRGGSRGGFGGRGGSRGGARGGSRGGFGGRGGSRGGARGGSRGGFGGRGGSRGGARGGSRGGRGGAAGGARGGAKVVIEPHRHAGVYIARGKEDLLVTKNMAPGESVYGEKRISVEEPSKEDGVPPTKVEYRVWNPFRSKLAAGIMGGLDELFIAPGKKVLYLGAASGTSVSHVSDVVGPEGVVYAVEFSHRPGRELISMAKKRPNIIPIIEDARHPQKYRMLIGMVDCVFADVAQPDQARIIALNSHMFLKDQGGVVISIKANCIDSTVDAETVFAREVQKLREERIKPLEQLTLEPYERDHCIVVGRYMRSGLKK
UniProt P38811: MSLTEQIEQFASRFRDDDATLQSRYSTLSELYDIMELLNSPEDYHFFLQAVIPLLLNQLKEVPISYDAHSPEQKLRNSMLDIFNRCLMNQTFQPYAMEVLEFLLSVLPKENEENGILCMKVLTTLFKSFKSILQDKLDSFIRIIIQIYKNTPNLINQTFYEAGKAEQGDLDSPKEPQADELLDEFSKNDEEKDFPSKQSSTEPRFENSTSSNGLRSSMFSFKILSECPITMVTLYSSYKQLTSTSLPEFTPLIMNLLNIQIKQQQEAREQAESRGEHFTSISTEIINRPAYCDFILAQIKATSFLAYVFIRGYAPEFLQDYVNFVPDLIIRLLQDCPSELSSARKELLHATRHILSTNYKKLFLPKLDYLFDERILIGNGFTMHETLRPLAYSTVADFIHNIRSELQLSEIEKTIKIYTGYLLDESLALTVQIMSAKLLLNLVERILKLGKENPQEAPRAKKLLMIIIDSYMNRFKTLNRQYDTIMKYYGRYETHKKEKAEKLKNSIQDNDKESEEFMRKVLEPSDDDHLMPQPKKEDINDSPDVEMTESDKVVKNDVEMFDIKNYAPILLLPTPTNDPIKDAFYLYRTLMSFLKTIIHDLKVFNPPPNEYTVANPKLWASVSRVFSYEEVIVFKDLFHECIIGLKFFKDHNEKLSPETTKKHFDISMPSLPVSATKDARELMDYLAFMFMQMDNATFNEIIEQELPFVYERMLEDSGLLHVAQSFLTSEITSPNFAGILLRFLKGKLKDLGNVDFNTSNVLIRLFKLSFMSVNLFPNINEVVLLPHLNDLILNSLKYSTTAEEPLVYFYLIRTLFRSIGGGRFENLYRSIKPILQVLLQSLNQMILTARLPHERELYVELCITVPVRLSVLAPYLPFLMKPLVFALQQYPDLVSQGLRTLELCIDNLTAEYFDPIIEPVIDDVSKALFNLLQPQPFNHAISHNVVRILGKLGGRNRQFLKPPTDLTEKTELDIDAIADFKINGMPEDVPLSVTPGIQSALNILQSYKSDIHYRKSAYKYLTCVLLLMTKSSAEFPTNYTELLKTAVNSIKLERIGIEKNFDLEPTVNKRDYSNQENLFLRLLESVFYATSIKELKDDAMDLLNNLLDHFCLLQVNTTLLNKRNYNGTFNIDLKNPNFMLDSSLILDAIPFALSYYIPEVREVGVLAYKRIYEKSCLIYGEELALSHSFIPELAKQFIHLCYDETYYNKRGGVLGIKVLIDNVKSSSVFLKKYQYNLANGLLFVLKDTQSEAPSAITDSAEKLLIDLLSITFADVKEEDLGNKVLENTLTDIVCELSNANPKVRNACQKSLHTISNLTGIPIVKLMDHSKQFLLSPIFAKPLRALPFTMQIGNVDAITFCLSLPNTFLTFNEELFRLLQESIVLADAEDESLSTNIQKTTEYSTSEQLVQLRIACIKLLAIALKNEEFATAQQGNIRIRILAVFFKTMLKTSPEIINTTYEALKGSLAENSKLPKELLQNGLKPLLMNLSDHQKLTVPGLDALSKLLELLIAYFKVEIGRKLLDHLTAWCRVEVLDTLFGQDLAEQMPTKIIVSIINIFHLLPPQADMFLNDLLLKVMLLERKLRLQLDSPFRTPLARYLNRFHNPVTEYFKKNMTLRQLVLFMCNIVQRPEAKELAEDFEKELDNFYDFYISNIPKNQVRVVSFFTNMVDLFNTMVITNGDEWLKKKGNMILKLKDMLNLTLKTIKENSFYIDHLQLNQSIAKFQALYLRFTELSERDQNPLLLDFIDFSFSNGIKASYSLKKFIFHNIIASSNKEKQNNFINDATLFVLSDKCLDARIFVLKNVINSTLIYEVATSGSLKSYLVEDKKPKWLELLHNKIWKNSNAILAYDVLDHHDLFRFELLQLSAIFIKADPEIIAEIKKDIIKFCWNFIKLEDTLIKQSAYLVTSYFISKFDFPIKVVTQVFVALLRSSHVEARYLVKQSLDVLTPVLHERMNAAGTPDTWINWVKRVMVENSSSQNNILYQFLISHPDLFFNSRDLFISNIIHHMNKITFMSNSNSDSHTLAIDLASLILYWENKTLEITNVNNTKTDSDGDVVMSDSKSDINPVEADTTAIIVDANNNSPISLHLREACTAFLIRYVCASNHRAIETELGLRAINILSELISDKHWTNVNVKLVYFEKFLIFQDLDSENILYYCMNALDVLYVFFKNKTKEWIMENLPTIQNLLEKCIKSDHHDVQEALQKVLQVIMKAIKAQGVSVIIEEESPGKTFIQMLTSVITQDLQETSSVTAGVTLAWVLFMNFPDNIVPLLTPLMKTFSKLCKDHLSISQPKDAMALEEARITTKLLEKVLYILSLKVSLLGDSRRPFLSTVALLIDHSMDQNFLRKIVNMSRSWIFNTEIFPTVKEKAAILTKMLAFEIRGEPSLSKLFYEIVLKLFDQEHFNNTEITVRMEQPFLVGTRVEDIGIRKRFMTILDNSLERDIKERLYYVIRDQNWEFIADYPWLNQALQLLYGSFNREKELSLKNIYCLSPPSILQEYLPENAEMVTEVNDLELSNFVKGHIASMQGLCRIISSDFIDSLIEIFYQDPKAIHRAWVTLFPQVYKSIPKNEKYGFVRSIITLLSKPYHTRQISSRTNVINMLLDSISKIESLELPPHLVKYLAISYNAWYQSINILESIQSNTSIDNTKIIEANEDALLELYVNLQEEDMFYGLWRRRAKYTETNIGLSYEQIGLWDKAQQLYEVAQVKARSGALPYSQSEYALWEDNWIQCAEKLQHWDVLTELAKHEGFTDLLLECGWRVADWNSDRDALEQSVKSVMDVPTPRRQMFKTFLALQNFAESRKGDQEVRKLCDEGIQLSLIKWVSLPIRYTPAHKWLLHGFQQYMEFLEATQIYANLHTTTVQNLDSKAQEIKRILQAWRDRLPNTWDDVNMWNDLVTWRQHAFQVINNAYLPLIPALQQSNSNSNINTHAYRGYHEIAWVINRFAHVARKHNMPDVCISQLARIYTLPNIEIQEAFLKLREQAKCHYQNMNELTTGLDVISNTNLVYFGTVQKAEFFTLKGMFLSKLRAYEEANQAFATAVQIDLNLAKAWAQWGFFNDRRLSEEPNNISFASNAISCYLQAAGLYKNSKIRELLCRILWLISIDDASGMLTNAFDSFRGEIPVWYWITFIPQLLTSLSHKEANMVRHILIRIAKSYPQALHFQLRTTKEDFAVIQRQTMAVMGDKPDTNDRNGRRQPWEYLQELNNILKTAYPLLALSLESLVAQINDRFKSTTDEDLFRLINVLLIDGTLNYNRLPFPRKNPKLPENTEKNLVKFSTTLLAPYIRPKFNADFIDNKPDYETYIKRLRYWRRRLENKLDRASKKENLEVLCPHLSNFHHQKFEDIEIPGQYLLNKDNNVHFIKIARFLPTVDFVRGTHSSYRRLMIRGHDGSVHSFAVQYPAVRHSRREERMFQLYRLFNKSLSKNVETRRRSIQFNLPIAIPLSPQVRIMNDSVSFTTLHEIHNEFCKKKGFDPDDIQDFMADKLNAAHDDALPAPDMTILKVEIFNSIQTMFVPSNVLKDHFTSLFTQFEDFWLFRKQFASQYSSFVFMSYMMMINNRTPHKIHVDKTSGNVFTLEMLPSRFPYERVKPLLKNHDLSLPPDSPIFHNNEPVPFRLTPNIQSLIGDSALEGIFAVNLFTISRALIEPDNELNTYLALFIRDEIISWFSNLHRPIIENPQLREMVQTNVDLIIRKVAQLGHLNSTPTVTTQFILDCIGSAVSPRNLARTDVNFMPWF

binding, binds:
Abd1 (from UniProt P32783 1-436) (enzyme), Ceg1 (from UniProt Q01159 1-459) (enzyme), Chd1 (from UniProt P32657 1-1468), Dbp2 (from UniProt P24783 1-546), Nop1 (from UniProt P15646 1-327), Puf6 (from UniProt Q04373 1-656), Rrp5 (from UniProt Q05022 1-1729), Rtf1 (from UniProt P53064 1-558), Tra1 (from UniProt P38811 1-3744)

— article PMC8511950
